No constants are given. Whether binding was seen depends on the method and setting. Some binding calls cover weakened binding; strength is not graded here.

Test [1] has as its target NPM1_(240-294) (isolated C-terminal nucleotide-binding domain) (human). The test is described as follows: native MS.
The target of test [2] is NPM1_(188) (NTD and the acidic regions of the IDR, residues 1-188) (human). The test is described as follows: native MS.

B1: NPM1_(240-294) (isolated C-terminal nucleotide-binding domain) (domain or fragment)
chain: GPSSVEDIKAKMQASIEKGGSLPKVEAKFINYVKNCFRMTDQEAIQDLWQWRKSL
As for B1, the binding result was “no binding” in test [1] and “binds weakly” in test [2].
